Measurements from PubChem BioAssay AID493014 (National Center for Advancing Translational Sciences (NCATS), 2011).
The list shows a part of the results. The main result of the screen is listed elsewhere. These columns were measured beside it and carry no call. Most of these compounds were active or inconclusive in the main read-out, so they are no random draw. Potencies come from curve fits of mixed quality, noted in brackets.

Experiment: qHTS Assay to Find Inhibitors of Chronic Active B-Cell Receptor Signaling
Details: ABC-DLBCL IkBa-CBG/CBR reporter, luminescence ratio (green luciferase fused to IkBa over red control in TMD8 lymphoma cells), 4 h
Summary of the method: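 TMD8 ABC-DLBCL cells carrying doxycycline-inducible green luciferase fused to IkappaBalpha plus unfused red luciferase were exposed to compounds (up to 46 uM) for 4 hrs at 37C. Activity came from the overlap-corrected green/red luminescence ratio.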

[1] = measured here: CBR red luminescence, cell number
[2] = measured here: IkBa-CBG green luminescence

Compound | AC50 [1] | AC50 [2]
Cc1cc(C(=O)COc2cccnc2[N+](=O)[O-])c(C)n1-c1ccccc1F | 17.8 µM [falling, single point] | 
CCCCCOc1ccc(Br)cc1/C(C)=N/NC1=NCCN1 | 23.1 µM [rising, single point] | 16.4 µM [falling, single point]
Cc1cccc(-n2c(SCC(=O)Nc3ncc(Cl)cc3Cl)nc3ccccc32)c1 | 18.4 µM [falling, single point] | 
Cc1ccc(-n2c(SCC(=O)N/N=C/C=C/c3ccccc3[N+](=O)[O-])nc3ccccc3c2=O)cc1 | 2.31 µM [falling, full curve] | 
COC(=O)c1ccc(N2CCCCC2)c(NS(=O)(=O)c2ccc(C)cc2)c1 | 32.6 µM [rising, single point] | 
COc1ccc(C2c3c(-c4ccccc4O)n[nH]c3C(=O)N2CCc2ccc(OC)c(OC)c2)cc1 (centres undefined) | 0.82 µM [falling, full curve, poor fit] | 
O=C(Cn1cc([N+](=O)[O-])nc1[N+](=O)[O-])N1CCN(c2ccccc2)CC1 | 14.1 µM [falling, partial curve, poor fit] | 
N#CCC(=O)N/N=C/c1c2ccccc2cc2ccccc12 | 15.8 µM [falling, partial curve, poor fit] | 
Cc1ccc2[nH]c(C(=O)N/N=C/c3ccccc3C(=O)O)c(-c3ccccc3)c2c1 |  | 3.98 µM [falling, full curve]
Cc1ccc2nsnc2c1S(=O)(=O)N(Cc1ccco1)Cc1cc2cccc(C)c2[nH]c1=O | 35.5 µM [rising, single point] | 
O=C(c1[nH]ncc1-c1ccccc1)C1CO1 (centres undefined) | 35.5 µM [falling, single point] | 
Cc1ccc(NC(=O)COc2ncnc3ccccc23)cc1S(=O)(=O)N1CCOCC1 | 0.82 µM [rising, full curve] | 
O=C(OCc1nnc(-c2ccccc2)o1)c1ccccc1 | 12.6 µM [falling, single point] | 
Nc1cccnc1Sc1cc(Cl)cc(Cl)c1 | 20.6 µM [rising, partial curve] | 
O=C(COC(=O)Cn1cc(C(F)(F)F)ccc1=O)Nc1ccccc1 | 16.4 µM [rising, partial curve] | 
Cc1cccc(N/N=C/c2ccc(C)s2)c1 | 3.98 µM [rising, partial curve] | 
O=C(COc1ccc2c(c1)OCO2)NC12CC3CC(CC(C3)C1)C2 | 23.1 µM [falling, single point] | 
Cc1cc(C(=O)NCc2cccs2)c(C)o1 | 10.3 µM [falling, partial curve, poor fit] | 
C/C(=N\Nc1nccnc1Cl)c1ccc(Cl)c(Cl)c1 | 6.31 µM [rising, partial curve, poor fit] | 
COc1ccc2[nH]c3c(C)c4ccncc4c(C)c3c2c1 | 35.5 µM [falling, single point] | 
O=[N+]([O-])c1cccnc1N1CCC(c2cc(-c3ccc(Cl)cc3)n[nH]2)CC1 | 29.1 µM [falling, single point] | 20.6 µM [rising, partial curve, poor fit]

Given with each value named: 2 of the compounds above
Cc1cccc(N/N=C/c2ccc(C)s2)c1
  AC50 [1]: 3.98 µM [rising, partial curve]
O=C(COc1ccc2c(c1)OCO2)NC12CC3CC(CC(C3)C1)C2
  AC50 [1]: 23.1 µM [falling, single point]

Additional results

Compound | AC50 [1] | AC50 [2]
c1ccc(C2=NNC(=NC3CC3)SC2)cc1 | 20 µM [falling, single point] | 
COC(=O)C1=C(C)N(c2ccc(Cl)c(Cl)c2)C(=O)C1 | 1.46 µM [falling, full curve] | 20.6 µM [rising, partial curve, poor fit]
O=C1C=C(Nc2ccc(Cl)cc2)CC(c2ccco2)C1 (centres undefined) | 18.4 µM [falling, single point] | 
CS(=O)(=O)c1ccc2nc(NC(=O)c3ccc(Cl)cc3)sc2c1 | 2.82 µM [rising, partial curve] | 
Cc1cccc(NC(=O)c2ccccc2NC(=O)CCC(=O)O)c1 | 29.1 µM [rising, single point] | 
CSc1cccc(NC(=O)CCCNC(=O)c2ccc(Cl)cc2)c1 | 35.5 µM [falling, single point] | 
Clc1ccc2nc(N3CCCCC3)sc2c1 | 6.51 µM [rising, single point] | 
N/C(=N\OC(=O)Cc1ccc([N+](=O)[O-])cc1)c1cccc(Br)c1 | 6.31 µM [falling, partial curve] | 
C/C(Cn1cnc([N+](=O)[O-])n1)=N/NC(=O)COc1ccccc1Cl | 2.31 µM [rising, full curve] | 
CN1C2CCC1CC(N(CCc1ccccc1)C(=O)c1ccc(Cl)cc1)C2 (centres undefined) | 14.1 µM [falling, partial curve, poor fit] | 
CC(=O)n1nc(-c2ccc(Cl)cc2)nc1NCc1ccco1 | 0.259 µM [rising, full curve, poor fit] | 
COC(=O)c1sc2nc3c(cc2c1N)COC(C)(C)C3 | 6.51 µM [falling, single point] | 
CCC(=O)Nc1ccc(NC(=O)c2ccccc2)nc1 | 2.24 µM [falling, full curve] | 
CN(C)S(=O)(=O)c1ccc(Cl)c(NC(=O)COC(=O)CNC(=O)c2ccco2)c1 | 5.01 µM [rising, full curve, poor fit] | 
O=C(Nc1ccc([N+](=O)[O-])cc1)Nc1ccc2c(c1)OCCO2 | 0.794 µM [rising, full curve, poor fit] | 
COc1ccc(NC(=O)c2ccc(C)cc2Cl)c([N+](=O)[O-])c1 | 5.62 µM [rising, partial curve] | 
C/C(=N\OC(=O)c1ccc(F)cc1)c1sc(-c2ccccc2)nc1C | 0.501 µM [rising, full curve, poor fit] | 
O=C(Nc1ccncc1)c1ccc(NS(=O)(=O)c2ccc3[nH]c(=O)[nH]c3c2)cc1 | 20 µM [rising, partial curve, poor fit] | 
O=C(Sc1ccccc1)c1cccc(Cn2cc(C(F)(F)F)ccc2=O)c1 | 11.2 µM [falling, partial curve] | 
Cc1cc(=O)n2nc(N3CCC(C(=O)NCC(C)c4ccccc4)CC3)sc2n1 (centres undefined) | 12.6 µM [falling, partial curve, poor fit] | 
